From article PMC8998617
No constants are given. Whether binding was seen depends on the method and setting.

Chains of the proteins cited; added tags and fusions are not shown. Residues count along the entry.
UniProt P52948, residues 1-498: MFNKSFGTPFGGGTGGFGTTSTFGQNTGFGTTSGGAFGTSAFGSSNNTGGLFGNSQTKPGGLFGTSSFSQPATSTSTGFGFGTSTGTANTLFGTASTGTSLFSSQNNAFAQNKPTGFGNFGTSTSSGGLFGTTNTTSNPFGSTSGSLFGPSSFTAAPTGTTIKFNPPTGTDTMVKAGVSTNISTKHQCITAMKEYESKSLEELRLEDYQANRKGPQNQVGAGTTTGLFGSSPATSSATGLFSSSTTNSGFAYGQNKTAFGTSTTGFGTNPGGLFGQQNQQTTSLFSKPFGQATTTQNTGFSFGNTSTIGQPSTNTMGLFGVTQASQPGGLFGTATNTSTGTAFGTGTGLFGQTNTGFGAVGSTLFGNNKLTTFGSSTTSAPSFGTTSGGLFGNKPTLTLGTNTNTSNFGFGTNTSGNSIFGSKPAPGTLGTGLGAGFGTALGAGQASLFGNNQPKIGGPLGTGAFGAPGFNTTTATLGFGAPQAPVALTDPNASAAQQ
UniProt P02769, residues 25-607: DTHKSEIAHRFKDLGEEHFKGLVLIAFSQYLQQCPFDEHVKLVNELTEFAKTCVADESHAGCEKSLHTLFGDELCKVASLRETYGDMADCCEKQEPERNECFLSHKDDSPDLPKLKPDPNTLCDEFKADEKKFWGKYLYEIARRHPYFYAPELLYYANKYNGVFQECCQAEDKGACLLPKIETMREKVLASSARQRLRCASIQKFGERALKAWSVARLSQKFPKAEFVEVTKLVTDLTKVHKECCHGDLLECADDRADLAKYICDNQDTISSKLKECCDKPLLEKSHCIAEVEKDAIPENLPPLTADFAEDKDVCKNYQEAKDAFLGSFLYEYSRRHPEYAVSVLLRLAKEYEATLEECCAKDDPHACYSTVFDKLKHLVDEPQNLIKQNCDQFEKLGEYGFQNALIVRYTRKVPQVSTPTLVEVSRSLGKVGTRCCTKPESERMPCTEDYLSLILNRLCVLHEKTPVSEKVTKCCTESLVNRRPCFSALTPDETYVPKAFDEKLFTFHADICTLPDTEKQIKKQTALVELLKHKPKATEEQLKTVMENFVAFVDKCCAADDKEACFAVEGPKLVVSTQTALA

Molecular target: Nup98-FG (N-terminal FG-domain of Nup98, aa 1-498) with one additional N-terminal cysteine, tethered to the SPR gold chip (UniProt P52948)
Experiment: SPR; Biacore T200; Nup98-FG or Nup98-FG/FS tethered by its N-terminal cysteine to the gold sensor chip; Tau proteins injected at increasing concentrations in PBS; BSA injected after each Tau injection; equilibrium constants from one- or two-component Langmuir fits; both purified

binding: no binding
Substance: bovine serum albumin (BSA) (from UniProt P02769 25-607)
